No constants are given. Whether binding was seen depends on the method and setting. Binding seen in cells or lysates may run through a third protein. These calls come from enrichment with a bait or labelling near it, and not all partners need be listed. Tags and fused reporters may be left off the sequences shown.
T1: exogenous CRB3b (CRB3-GFP) stably expressed in MCF10A cells (human) (UniProt Q9BUF7)
T1 sequence: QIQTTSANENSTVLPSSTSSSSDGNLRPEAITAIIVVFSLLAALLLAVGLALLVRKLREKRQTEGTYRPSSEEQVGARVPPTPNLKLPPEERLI

Chains of the proteins cited; added tags and fusions are not shown.
UniProt P23258: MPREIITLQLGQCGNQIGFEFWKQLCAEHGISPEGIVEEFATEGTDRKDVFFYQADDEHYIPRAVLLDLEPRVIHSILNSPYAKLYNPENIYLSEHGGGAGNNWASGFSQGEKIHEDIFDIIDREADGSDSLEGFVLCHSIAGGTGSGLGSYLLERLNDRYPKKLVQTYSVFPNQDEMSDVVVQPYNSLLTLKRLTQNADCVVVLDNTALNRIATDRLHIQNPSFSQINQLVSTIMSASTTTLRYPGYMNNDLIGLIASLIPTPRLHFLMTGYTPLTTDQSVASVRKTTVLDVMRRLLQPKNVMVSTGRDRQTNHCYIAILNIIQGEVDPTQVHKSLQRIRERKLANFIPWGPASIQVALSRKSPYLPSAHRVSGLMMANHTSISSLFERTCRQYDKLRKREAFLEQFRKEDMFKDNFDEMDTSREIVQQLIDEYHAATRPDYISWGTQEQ
UniProt Q9H0U4: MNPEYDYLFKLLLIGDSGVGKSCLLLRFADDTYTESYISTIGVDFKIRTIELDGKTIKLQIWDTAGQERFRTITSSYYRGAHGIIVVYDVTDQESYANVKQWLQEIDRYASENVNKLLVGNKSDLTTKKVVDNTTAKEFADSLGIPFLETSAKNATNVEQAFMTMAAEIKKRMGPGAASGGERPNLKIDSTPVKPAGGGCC
UniProt Q9NRH3: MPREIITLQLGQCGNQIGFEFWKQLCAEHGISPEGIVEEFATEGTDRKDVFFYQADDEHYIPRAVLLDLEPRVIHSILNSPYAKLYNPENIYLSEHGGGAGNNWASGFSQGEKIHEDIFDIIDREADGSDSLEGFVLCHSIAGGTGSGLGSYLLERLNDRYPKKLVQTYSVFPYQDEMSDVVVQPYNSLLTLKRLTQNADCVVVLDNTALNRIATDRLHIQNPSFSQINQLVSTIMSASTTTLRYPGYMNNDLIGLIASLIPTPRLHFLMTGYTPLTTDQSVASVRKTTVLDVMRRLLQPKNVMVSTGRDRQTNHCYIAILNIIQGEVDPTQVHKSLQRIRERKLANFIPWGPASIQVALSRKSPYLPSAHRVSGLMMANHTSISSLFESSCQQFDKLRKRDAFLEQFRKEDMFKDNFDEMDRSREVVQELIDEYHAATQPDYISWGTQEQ
UniProt P62491: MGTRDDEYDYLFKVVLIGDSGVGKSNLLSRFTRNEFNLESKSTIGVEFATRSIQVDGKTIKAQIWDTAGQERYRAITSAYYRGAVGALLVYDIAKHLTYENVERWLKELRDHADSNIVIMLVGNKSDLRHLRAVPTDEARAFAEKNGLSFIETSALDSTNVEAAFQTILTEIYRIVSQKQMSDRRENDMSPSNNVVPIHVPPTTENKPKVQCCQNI
UniProt P20340: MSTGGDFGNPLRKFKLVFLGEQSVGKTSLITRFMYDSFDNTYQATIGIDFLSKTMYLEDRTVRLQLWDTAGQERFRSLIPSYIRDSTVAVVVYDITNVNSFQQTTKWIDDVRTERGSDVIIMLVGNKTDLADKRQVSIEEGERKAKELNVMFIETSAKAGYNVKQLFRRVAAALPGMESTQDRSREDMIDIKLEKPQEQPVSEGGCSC
UniProt Q02224: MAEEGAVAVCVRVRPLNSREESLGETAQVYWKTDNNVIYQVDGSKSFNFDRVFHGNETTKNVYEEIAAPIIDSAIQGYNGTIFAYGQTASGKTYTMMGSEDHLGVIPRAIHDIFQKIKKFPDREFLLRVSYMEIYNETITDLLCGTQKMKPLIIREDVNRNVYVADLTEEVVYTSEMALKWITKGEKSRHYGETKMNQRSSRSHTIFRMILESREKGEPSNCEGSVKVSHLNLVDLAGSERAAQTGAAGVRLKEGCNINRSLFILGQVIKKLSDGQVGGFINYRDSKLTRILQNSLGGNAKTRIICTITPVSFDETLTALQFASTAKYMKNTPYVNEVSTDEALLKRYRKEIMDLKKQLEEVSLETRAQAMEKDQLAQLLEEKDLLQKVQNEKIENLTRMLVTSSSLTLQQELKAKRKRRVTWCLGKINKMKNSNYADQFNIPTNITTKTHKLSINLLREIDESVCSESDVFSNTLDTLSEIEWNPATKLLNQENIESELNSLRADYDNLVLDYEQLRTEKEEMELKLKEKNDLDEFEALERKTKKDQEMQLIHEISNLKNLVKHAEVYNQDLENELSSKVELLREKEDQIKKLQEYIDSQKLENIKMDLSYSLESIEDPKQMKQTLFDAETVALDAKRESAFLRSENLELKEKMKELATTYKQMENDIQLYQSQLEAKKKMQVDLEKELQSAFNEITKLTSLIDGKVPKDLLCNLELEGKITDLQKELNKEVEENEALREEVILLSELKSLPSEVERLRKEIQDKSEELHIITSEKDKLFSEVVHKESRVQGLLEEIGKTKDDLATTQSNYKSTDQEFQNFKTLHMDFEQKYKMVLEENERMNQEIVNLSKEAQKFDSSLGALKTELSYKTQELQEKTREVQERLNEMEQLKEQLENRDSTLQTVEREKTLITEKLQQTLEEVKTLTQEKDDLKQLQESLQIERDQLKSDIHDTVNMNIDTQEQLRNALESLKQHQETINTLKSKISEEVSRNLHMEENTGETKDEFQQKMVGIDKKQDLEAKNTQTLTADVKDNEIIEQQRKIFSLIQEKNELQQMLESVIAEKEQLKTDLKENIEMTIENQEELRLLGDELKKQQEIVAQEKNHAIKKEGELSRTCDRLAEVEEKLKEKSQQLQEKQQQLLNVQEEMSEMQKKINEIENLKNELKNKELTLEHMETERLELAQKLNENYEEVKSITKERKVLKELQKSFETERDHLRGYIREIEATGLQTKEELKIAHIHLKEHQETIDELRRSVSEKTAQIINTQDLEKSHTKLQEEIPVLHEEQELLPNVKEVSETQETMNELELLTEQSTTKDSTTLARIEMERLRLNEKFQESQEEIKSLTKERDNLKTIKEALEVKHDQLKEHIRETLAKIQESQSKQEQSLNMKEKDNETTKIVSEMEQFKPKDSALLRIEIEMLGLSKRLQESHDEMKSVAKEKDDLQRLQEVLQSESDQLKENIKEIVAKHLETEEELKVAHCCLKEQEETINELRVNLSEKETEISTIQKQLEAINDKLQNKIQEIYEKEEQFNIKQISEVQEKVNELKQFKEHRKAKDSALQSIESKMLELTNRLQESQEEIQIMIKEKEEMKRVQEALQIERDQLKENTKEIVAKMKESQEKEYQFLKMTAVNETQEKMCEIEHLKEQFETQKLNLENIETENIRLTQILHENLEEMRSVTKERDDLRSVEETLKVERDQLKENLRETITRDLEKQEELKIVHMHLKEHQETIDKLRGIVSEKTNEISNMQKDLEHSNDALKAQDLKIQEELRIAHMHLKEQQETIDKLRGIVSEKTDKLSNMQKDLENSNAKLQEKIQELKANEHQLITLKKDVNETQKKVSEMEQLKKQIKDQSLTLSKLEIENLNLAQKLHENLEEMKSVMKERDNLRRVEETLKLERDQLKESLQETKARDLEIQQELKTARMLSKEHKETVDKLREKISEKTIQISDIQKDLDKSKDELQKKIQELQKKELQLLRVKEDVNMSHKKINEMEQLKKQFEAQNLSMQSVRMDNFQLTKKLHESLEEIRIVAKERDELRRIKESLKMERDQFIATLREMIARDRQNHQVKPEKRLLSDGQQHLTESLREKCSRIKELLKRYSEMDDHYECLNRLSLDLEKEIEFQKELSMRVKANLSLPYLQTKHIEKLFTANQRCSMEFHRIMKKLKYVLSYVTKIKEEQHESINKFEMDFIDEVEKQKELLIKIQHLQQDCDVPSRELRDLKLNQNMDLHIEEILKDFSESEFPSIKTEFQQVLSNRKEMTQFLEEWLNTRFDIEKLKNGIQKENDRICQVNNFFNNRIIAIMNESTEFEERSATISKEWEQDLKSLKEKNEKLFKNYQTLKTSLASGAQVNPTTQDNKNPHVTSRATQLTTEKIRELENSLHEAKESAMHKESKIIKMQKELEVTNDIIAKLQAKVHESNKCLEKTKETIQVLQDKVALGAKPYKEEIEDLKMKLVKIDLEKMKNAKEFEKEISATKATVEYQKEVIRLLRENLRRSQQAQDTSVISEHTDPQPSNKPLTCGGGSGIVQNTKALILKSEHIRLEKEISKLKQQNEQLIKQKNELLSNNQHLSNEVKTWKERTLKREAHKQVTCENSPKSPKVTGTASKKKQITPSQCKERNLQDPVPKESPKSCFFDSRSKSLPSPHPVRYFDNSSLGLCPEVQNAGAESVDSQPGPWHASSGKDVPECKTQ
UniProt Q15286: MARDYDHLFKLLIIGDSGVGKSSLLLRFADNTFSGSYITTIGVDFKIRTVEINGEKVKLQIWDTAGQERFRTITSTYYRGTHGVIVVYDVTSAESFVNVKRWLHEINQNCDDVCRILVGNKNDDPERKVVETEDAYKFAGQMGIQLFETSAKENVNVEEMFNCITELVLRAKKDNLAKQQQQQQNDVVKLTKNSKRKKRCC
UniProt P51148: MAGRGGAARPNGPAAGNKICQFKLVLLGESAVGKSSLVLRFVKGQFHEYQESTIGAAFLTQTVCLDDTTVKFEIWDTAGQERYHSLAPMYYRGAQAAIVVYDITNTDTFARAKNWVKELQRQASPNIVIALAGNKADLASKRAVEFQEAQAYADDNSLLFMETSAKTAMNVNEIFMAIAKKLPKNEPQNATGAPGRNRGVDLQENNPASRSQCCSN
UniProt Q9UL25: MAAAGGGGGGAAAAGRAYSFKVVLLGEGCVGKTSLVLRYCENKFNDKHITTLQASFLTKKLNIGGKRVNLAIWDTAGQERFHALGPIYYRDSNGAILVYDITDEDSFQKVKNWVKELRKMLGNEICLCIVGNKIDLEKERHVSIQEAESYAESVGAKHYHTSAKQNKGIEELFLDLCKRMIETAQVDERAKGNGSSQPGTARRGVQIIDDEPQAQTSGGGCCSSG
UniProt P61026: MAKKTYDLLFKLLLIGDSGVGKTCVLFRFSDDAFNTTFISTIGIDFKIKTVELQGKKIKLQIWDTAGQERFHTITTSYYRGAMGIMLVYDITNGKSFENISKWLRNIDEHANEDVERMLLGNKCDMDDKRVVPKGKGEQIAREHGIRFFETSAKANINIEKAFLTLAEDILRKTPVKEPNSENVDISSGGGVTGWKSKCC
UniProt P62820: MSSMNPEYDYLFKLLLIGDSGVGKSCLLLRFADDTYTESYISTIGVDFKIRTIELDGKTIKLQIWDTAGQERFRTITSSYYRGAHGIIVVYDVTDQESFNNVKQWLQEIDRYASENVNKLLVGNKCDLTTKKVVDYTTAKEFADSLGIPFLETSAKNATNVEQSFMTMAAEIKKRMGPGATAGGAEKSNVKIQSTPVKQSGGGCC
UniProt P61019: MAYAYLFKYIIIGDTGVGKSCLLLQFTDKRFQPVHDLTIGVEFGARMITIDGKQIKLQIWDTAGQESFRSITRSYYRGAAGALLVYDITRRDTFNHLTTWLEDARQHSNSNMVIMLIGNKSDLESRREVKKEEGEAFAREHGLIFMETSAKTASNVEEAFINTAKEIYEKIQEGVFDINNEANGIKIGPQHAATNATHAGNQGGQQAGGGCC

B1: Rab38 (protein, UniProt P57729 1-211)
chain: MQAPHKEHLYKLLVIGDLGVGKTSIIKRYVHQNFSSHYRATIGVDFALKVLHWDPETVVRLQLWDIAGQERFGNMTRVYYREAMGAFIVFDVTRPATFEAVAKWKNDLDSKLSLPNGKPVSVVLLANKCDQGKDVLMNNGLKMDQFCKEHGFVGWFETSAKENINIDEASRCLVKHILANECDLMESIEPDVVKPHLTSTKVASCSGCAKS
B2: Rab5B (protein, UniProt P61020 1-215)
chain: MTSRSTARPNGQPQASKICQFKLVLLGESAVGKSSLVLRFVKGQFHEYQESTIGAAFLTQSVCLDDTTVKFEIWDTAGQERYHSLAPMYYRGAQAAIVVYDITNQETFARAKTWVKELQRQASPSIVIALAGNKADLANKRMVEYEEAQAYADDNSLLFMETSAKTAMNVNDLFLAIAKKLPKSEPQNLGGAAGRSRGVDLHEQSQQNKSQCCSN
B3: CEP162 (protein, UniProt Q5TB80 1-1403)
chain: MANCSQEELDEEFEQFMKELSDDSFENSDKTARQSKKEMKKKDTVPWWITEDDFKDDGLLGTNVSYLKTKKTSQPVMEIEEESAEKIQFLKSSGTSLLSTDSLETNELVVSELNHSSLGVGLDTLEEQEEKEQFFARLEKGLTSSIDYSRLNKELDSNDSTHFKALHSNQANAELTDDEHENESKHEELAENYSDDFEDEYVGAPLTTKDEEMPSKENSKSEKISVPKQEEEKTGMLANVVLLDSLDSVAEVNLDEQDKITPKPRCLPEMTENEMTGTGVSYGQSSSDVEALHQAYCHIAHSLGDEDKQKIESNTVEDIKSSVKGHPQENEENSKNISTMESDLPTVEELMKPIRIDSFGISGFDLQPVSSEKVAERKETEFFSSLPLKMNPNILSQDSQHVNLFFDKNDENVILQKTTNESMENSCPQVTEVTATEEHVDKMYLNILRKKITVNSSSLSQDDKINKTYRSQLSSEEEGAVMGKQVPYKKARSAPPLLKRKPQSGLYASVRSSGYGKPSSPLKMFSTLEKKTSEDIIKSKNLRSISTSNQPRKKEILSGTKLIKPAALDKPAHKTESCLSTRKKSENPTETDSCIQFQTDSLGYCGENKEKKLLMFKRVQEAEDKWRGAQALIEQIKATFSEKEKELENKLEELKKQQEKELFKLNQDNYILQAKLSSFEETNKKQRWLHFGEAADPVTGEKLKQIQKEIQEQETLLQGYQQENERLYNQVKDLQEQNKKNEERMFKENQSLFSEVASLKEQMHKSRFLSQVVEDSEPTRNQNFTDLLAELRMAQKEKDSLLEDIKRLKQDKQALEVDFEKMKKERDQAKDQIAYVTGEKLYEIKILEETHKQEISRLQKRLQWYAENQELLDKDALRLREANEEIEKLKLEIEKLKAESGNPSIRQKIRLKDKAADAKKIQDLERQVKEMEGILKRRYPNSLPALILAASAAGDTVDKNTVEFMEKRIKKLEADLEGKDEDAKKSLRTMEQQFQKMKIQYEQRLEQQEQLLACKLNQHDSPRIKALEKELDDIKEAHQITVRNLEAEIDVLKHQNAELDVKKNDKDDEDFQSIEFQVEQAHAKAKLVRLNEELAAKKREIQDLSKTVERLQKDRRMMLSNQNSKGREEMSAKRAKKDVLHSSKGNANSFPGTLDSKLYQPHTFTDSHVSEVLQENYRLKNELEGLISEKNELKMKSEAVMNQFENSMRRVKEDTAAHIASLKASHQREIEKLLCQNAVENSSSKVAELNRKIATQEVLIRHFQSQVNELQSKQESLVVSEVREEILQKEITKLLEELREAKENHTPEMKHFVGLEKKIKQMEMRHAQREQELQQIIQQTHQVVETEQNKEVEKWKRLAQLKNRELEKFRTELDSILDVLRELHRQGVVVPVAFADEMNAPEY
B4: Rab32 (protein, UniProt Q13637 1-225)
chain: MAGGGAGDPGLGAAAAPAPETREHLFKVLVIGELGVGKTSIIKRYVHQLFSQHYRATIGVDFALKVLNWDSRTLVRLQLWDIAGQERFGNMTRVYYKEAVGAFVVFDISRSSTFEAVLKWKSDLDSKVHLPNGSPIPAVLLANKCDQNKDSSQSPSQVDQFCKEHGFAGWFETSAKDNINIEEAARFLVEKILVNHQSFPNEENDVDKIKLDQETLRAENKSQCC

molecular target: T1, exogenous CRB3b (CRB3-GFP) stably expressed in MCF10A cells (human); assay: affinity purification with mass spectrometry; co-IP tandem mass spectrometry with tagged exogenous CRB3b as bait in MCF10A cells; LC-MS/MS on Q Exactive Plus

Row | Molecule | binding
1 | tubulin gamma-1 (from UniProt P23258 1-451) | binds
2 | CEP290 (endogenous, MCF10A cells) (from UniProt O15078 1-2479) | binds
3 | Rab1B (from UniProt Q9H0U4 1-201) | binds
4 | CEP295 (from UniProt Q9C0D2 1-2601) | binds
5 | tubulin gamma-2 (from UniProt Q9NRH3 1-451) | binds
6 | Rab11A (from UniProt P62491 1-216) | binds
7 | Rab6A (from UniProt P20340 1-208) | binds
8 | CENP-E (from UniProt Q02224 1-2701) | binds
9 | CEP192 (from UniProt Q8TEP8 1-2537) | binds
10 | Rab35 (from UniProt Q15286 1-201) | binds
11 | Rab5C (from UniProt P51148 1-216) | binds
12 | Rab21 (from UniProt Q9UL25 1-225) | binds
13 | Rab10 (from UniProt P61026 1-200) | binds
14 | Rab1A (from UniProt P62820 1-205) | binds
15 | Rab2A (from UniProt P61019 1-212) | binds
16 | B1 | binds
17 | B2 | binds
18 | B3 | binds
19 | B4 | binds
